Assay results as given in PubChem BioAssay AID743255 (National Center for Advancing Translational Sciences (NCATS), 2014).
Among all 390,000 compounds or so, about 910 (0.23%) were called active. Inconclusive means that the source gave no clear call. Such entries were picked first, then a sample of the others. The call rests on the fitted dose curve; in most records, active means well fitted inhibition curve with a large enough effect; inconclusive means small, poorly fitted or top-dose-only effect; inactive means no such curve, though single readings can be large or run the other way. Potencies beside an inconclusive call are fits to weak or partial responses and may not hold up.

Chains of the proteins cited; added tags and fusions are not shown. Lines headed by an entry give the natural chain unless they say otherwise; changes in a name come on top.
UniProt O94782: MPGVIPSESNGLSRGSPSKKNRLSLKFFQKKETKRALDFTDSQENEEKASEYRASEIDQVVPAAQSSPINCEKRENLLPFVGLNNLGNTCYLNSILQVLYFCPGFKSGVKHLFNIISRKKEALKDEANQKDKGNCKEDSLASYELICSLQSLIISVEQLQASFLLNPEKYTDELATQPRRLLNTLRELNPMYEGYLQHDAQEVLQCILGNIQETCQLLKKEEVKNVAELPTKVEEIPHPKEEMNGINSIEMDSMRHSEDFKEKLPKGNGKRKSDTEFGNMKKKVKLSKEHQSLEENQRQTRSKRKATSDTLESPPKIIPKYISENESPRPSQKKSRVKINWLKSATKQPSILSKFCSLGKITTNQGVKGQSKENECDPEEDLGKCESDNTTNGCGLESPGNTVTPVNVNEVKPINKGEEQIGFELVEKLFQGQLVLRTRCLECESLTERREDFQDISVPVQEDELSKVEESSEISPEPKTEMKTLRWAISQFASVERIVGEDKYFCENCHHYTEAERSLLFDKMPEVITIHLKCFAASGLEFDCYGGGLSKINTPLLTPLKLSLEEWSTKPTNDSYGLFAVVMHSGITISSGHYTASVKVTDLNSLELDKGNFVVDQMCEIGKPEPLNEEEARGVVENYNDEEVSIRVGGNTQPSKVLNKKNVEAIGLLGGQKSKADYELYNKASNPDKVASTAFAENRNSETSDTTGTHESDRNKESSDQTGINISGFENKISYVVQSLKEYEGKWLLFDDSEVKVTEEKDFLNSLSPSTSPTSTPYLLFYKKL

target: Ubiquitin carboxyl-terminal hydrolase 1 (Homo sapiens) (UniProt O94782); assay: Inhibitors of USP1/UAF1: Primary Screen; settings: recombinant USP1/UAF1, Ub-Rhodamine cleavage fluorescence; series mostly up to 57.1 µM; further: nearly all actives have a fitted effect of over 60% in size
Description: Deubiquitinating enzymes (DUBs) are a class of enzymes that can cleave isopeptide bond formed between the C-terminal carboxylate of ubiquitin and a lysine side-chain amino group on the target protein. Among them, ubiquitin specific proteases (USPs) constitute the largest DUB family. Human USPs are emerging as promising targets for pharmacological intervention because of their connection to a number of human diseases, including prostate, colon and breast cancer (1, 2), pediatric acute lymphoblastic leukemia (3), and familial cylindromatosis (4). The advantage of inhibiting USPs lies in the potential specificity of therapeutic intervention that can lead to better efficacy and reduce nonspecific side effects. In a collaboration between the University of Delaware and the NIH Chemical Genomics Center, a high-throughput screen assay was developed to screen for USP1/UAF1 inhibitors. This miniaturized assay has a fluorescent read-out and is used to screen the NIH Molecular Libraries Small Molecule Repository (MLSMR) in order to identify a small molecule that inhibits USP1. NIH Chemical Genomics Center [NCGC] NIH Molecular Libraries Probe Centers Network [MLPCN] MLPCN Grant: DA030552 Assay Submitter (PI): Zhihao Zhuang, University of Delaware 1. Priolo, C., et al. (2006) The isopeptidase USP2a protects human prostate cancer from apoptosis. Cancer Res 66, 8625-8632 2. Popov, N., et al. (2007) The ubiquitin-specific protease USP28 is required for MYC stability. Nat Cell Biol 9, 765-774 3. De Pitta, C., et al. (2005) A leukemia-enriched cDNA microarray platform identifies new transcripts with relevance to the biology of pediatric acute lymphoblastic leukemia. Haematologica 90, 890-898 4. Kovalenko, A., et al. (2003) The tumour suppressor CYLD negatively regulates NF-kappaB signalling by deubiquitination. Nature 424, 801-805
3 microliters of reagents (buffer in columns 3 and 4 as negative control and 1nM USP1/UAF1 complex in columns 1, 2, and 5-48) are dispensed into Greiner black solid bottom 1536-well assay plates. Compounds are then transferred via Kalypsys pin tool equipped with 1536-pin array (10nl slotted pins, V&P Scientific, San Diego, CA). Following an incubation step of 15 min at room temperature, 1ul of Ub-Rho substrate (150nM final concentration) is added to initiate the reaction. The plates are immediately centrifuged at 1000 rpm for 15 seconds, and subsequently transferred to a ViewLux high-throughput CCD imager (PerkinElmer) wherein kinetic measurements of fluorescence are acquired using 480 nm excitation/540 nm emission filter set (6 reads every 60 seconds, see Table 1). All reagents are diluted in an assay buffer consisting of 50mM HEPES (pH 7.8), 0.5mM EDTA, 0.1 mg/ml BSA, 1mM TCEP, and 0.01% Tween-20.
Potency means the concentration at half of the fitted maximal effect.

Potency, inactive:
CC1=C(n2nnc3ccccc32)C(c2ccccc2)C(C#N)=C(N)O1 (configuration not stated)
Cc1ccc(CNC(=O)c2cc3c(=O)n4ccccc4nc3n(CC3CCCO3)c2=N)cc1 (configuration not stated)
O=C(CSc1nc2ccccc2o1)N1c2ccccc2Sc2ccccc21
CC(=O)Nc1ccc(NC(=O)CN2C(=O)CN(C)C(=O)c3ccccc32)cc1
CCc1ccc(-n2c(C)nc3cc(C(=O)NCCc4ccccc4)ccc32)cc1
C/C(=N\NC(=O)CC#N)C1COc2ccccc2O1 (configuration not stated)
O=C(C[n+]1cc(-c2ccccc2)n2c1CCCCC2)c1ccc(Br)cc1
Cc1c(C(=O)NCCSCc2cccc(C(F)(F)F)c2)cnn1-c1ccc(Cl)cc1
Cn1c2c(c(=O)n(C)c1=O)C(c1ccccc1OC(F)F)C1=C(CCCC1=O)N2 (configuration not stated)
O=C(O)COc1ccccc1/C=N/NC(=O)CSc1nc2ccccc2n1Cc1ccccc1Cl
COc1ccc(-c2[nH]c(-c3ccc(OC)c(OC)c3)nc2SCC(=O)Nc2ccccc2)cc1
CC(C)(C)c1ccc(C(=O)c2c[nH]c(C(=O)NCc3cccs3)c2)cc1

Potency, inconclusive:
CC(=O)c1cccc(OCCCOc2cccc3cccnc23)c1 31.6 µM [inhibitor, partial curve]
N#Cc1cccc(NC(=O)NCCc2c[nH]c3ccccc23)c1 1.41 µM [inhibitor, full curve, poor fit]
CCC(C)c1ccc(NC(=O)c2[nH]c(C)c(C(C)=O)c2C)cc1 (configuration not stated) 8.91 µM [inhibitor, full curve]
CCCCCOc1ccc(C(=O)N(Cc2ccccc2)C2CCS(=O)(=O)C2)cc1 (configuration not stated) 0.631 µM [inhibitor, full curve]
COc1cc(OC)nc(Oc2ccccc2C(=O)Oc2cccc(C)c2)n1 2.51 µM [inhibitor, partial curve]
CC1CCc2nc(NC(=O)CCSc3ccccc3)sc2C1 (configuration not stated) 28.2 µM [inhibitor, partial curve]
O=C(C1CCC(Cn2c(=O)[nH]c3ccccc3c2=O)CC1)N1CCN(c2ccccc2)CC1 (configuration not stated) 7.94 µM [inhibitor, partial curve]
Cc1noc(C)c1S(=O)(=O)N(C)C[C@H]1Oc2ccc(NC(=O)CCC(F)(F)F)cc2C(=O)N([C@H](C)CO)C[C@@H]1C 3.98 µM [inhibitor, partial curve, poor fit]
Cc1cccc(C(=O)Nc2ccc(N3CCC(CCN4CCOCC4)CC3)c(C(=O)O)c2)c1 0.708 µM [inhibitor, full curve, poor fit]
Cc1cccc(C(=O)NCC(=O)Nc2ccncc2)c1 0.282 µM [inhibitor, full curve, poor fit]
Nc1cnccc1C(=O)O 35.5 µM [inhibitor, partial curve, poor fit]
O=C(CSc1oc(-c2ccco2)nc1S(=O)(=O)c1ccc(Cl)cc1)c1ccccc1 7.08 µM [inhibitor, single point]
CCOc1ccc2nc(N3CCCN(C(=O)Nc4ccccc4C)CC3)c(C#N)cc2c1 39.8 µM [inhibitor, partial curve]
Cc1nc2nc(SCC(=O)NC(C)c3ccccc3)nn2c(C)c1Cc1c(F)cccc1Cl (configuration not stated) 3.55 µM [inhibitor, partial curve]
Fc1ccc(NC(=S)Nc2ccc(Cl)cc2Cl)cc1 22.4 µM [inhibitor, partial curve]
CN1CCc2c(sc3c2C(=O)NC(c2cccc(OC(=O)c4cccs4)c2)N3)C1 (configuration not stated) 3.55 µM [inhibitor, full curve]
COc1ccc(Br)cc1CN(C)CC(=O)Nc1cccc(S(=O)(=O)N2CCCC2)c1 31.6 µM [inhibitor, partial curve]
Cc1cc(C)c(NS(=O)(=O)c2ccccc2)c(C)c1 35.5 µM [inhibitor, partial curve, poor fit]
O=Cc1cccc(Oc2ccc([N+](=O)[O-])cc2[N+](=O)[O-])c1 20 µM [inhibitor, partial curve]
CC(C)CC(=O)Nc1ccc(C(=O)OCc2cc(=O)n3nc(C4CCCCC4)sc3n2)cc1 0.251 µM [inhibitor, full curve, poor fit]
C#CCN(C[C@@H](CC(C)C)NC(=O)OC(C)(C)C)S(=O)(=O)c1ccc(Br)cc1F 282 µM [inhibitor, partial curve, poor fit]
Cc1cccc(C2NC(=O)c3c(sc4c3CCN(C)C4)N2)c1O (configuration not stated) 39.8 µM [inhibitor, partial curve, poor fit]
CC(Sc1ncc(S(=O)(=O)c2ccc(C(C)C)cc2)c(N)n1)C(=O)Nc1ccccc1 (configuration not stated) 44.7 µM [inhibitor, partial curve, poor fit]
CN(C)c1nc2n(c(=O)n1)CCO2 0.708 µM [inhibitor, partial curve, poor fit]
CC[C@H]1c2[nH]c3ccc(C(C)C)cc3c2[C@@H]2CCN3C(=O)CCC[C@H]1[C@H]23 89.1 µM [inhibitor, partial curve, poor fit]
CCSc1ccc(-c2ccco2)nn1 2 µM [inhibitor, partial curve]
CCN(CC)CCn1c(=N)n(CC(O)COc2ccccc2C)c2ccccc21 (configuration not stated) 1.26 µM [inhibitor, full curve, poor fit]
CC1=CC(C)(C)N(S(=O)(=O)c2ccc(F)cc2)c2ccc(C)cc21 31.6 µM [inhibitor, partial curve, poor fit]
CCC1=C2CC[C@H]3C(=O)NC(=O)[C@H]3[C@H]2[C@@]2(Cc3ccccc3)C(=NCC(=O)OC)OC(=O)N2C1=O 0.282 µM [inhibitor, full curve]
O=C(CSc1ncnc2c1oc1ccccc12)NC1CCCCC1 0.398 µM [inhibitor, full curve, poor fit]
O=C(NCc1cccc(F)c1)c1cccc2c1C(=O)c1ccc(Cl)cc1S2(=O)=O 0.251 µM [inhibitor, full curve, poor fit]
Cc1cc(-c2nnc(SCC(=O)Nc3ccccc3Cl)n2C)no1 79.4 µM [inhibitor, partial curve, poor fit]
COC(=O)c1c(NC(=O)c2ccc(S(=O)(=O)N3CCCCC3C)cc2)sc2c1CCN(C(C)C)C2 (configuration not stated) 35.5 µM [inhibitor, partial curve, poor fit]
CSc1ncc(C(=O)Nc2cccc(S(N)(=O)=O)c2)n1-c1ccccc1 6.31 µM [inhibitor, single point]
CCN1C(=NCC(C)C)N[C@@H](c2cccc(F)c2)C(C(=O)OC)=C1C 0.126 µM [inhibitor, full curve, poor fit]
C=C(NC(C)=O)c1c(F)cccc1F 44.7 µM [inhibitor, partial curve]
O=C1NC(=S)S/C1=C\c1cc2ccccc2nc1N1CCCCC1 31.6 µM [inhibitor, partial curve, poor fit]
COc1ccc(NC(=O)c2ccc(Cl)c(S(=O)(=O)NCC3CCCO3)c2)c(OC)c1 (configuration not stated) 89.1 µM [inhibitor, partial curve, poor fit]
Cc1ccc(-c2noc(-c3ccc(NCC4CCCO4)c([N+](=O)[O-])c3)n2)cc1 (configuration not stated) 50.1 µM [inhibitor, partial curve, poor fit]
CCCCOc1cccc(C(=O)N(Cc2ccc(Cl)cc2)C2CCS(=O)(=O)C2)c1 (configuration not stated) 25.1 µM [inhibitor, partial curve]
CCOc1ccccc1C(=O)N(Cc1ccc(N(C)C)cc1)Cc1ccco1 0.447 µM [inhibitor, full curve, poor fit]
COC(=O)CCCC1=CC2=CC(=O)C(C)(OC(=O)c3cccs3)C(=O)C2=CN1Cc1ccco1 (configuration not stated) 50.1 µM [inhibitor, partial curve, poor fit]
COC(=O)/C(C(C)=O)=C(\C=C\N(C)C)N(C)C 0.355 µM [inhibitor, full curve, poor fit]
Cc1c(CC(=O)NCC(=O)NCC(=O)O)c(=O)oc2c(C)c3oc4c(c3cc12)CCCC4 6.31 µM [inhibitor, full curve]
Cc1cccc(NC(=O)c2oc3ccc(S(=O)(=O)N4CCCCC4)cc3c2C)c1C 3.98 µM [inhibitor, partial curve]
COc1ccc(CC(=O)N2CCN(C(=O)c3ccco3)CC2)cc1 0.251 µM [inhibitor, full curve, poor fit]
Cc1cc2cc3c(cc2nc1SCC(=O)OC(C)C)OCCO3 44.7 µM [inhibitor, partial curve, poor fit]
COc1ccc(Cn2nnc3c(=O)[nH]c(C4CCCN(C(=O)c5ccccc5Cl)C4)nc32)cc1OC (configuration not stated) 0.282 µM [inhibitor, full curve, poor fit]

Fetched by structure from above, three records:
Potency, inconclusive:
CCC(C)c1ccc(NC(=O)c2[nH]c(C)c(C(C)=O)c2C)cc1 (configuration not stated) 8.91 µM [inhibitor, full curve]
Cc1cccc(C(=O)Nc2ccc(N3CCC(CCN4CCOCC4)CC3)c(C(=O)O)c2)c1 0.708 µM [inhibitor, full curve, poor fit]
COc1cc(OC)nc(Oc2ccccc2C(=O)Oc2cccc(C)c2)n1 2.51 µM [inhibitor, partial curve]

Next part.

Potency, active:
Cc1n[nH]c(C)c1N1C(=O)c2cccc3c(N4CCCCCC4)ccc(c23)C1=O 25.1 µM
Cc1ccc(NC2=CC(=O)C(=O)c3ccccc32)c(C)c1 31.6 µM
